Values from PubChem BioAssay AID652243 (Drosophila RNAi Screening Center, 2013).

Purpose: 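Fly regulators of androgen-dependent reporter output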 (primary screen)
System: Drosophila S2R+ cells
Knock-down reagent: long dsRNA against Drosophila genes
Time to read-out: 72 h (48 h, then 24 h hormone)
Challenge: synthetic androgen R1881 at 10 nM for 24 h
Measured: 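Per-well raw luminescence of the androgen-driven firefly reporter and of the Renilla control, two replicates each, without normalisation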
Reading the numbers: firefly reporter light: higher = more light from androgen-responsive reporter; Renilla control light: higher = more constitutive control signal (cell number, transfection)
Rule for the call: 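Hit when the log firefly-to-Renilla ratio dropped or increased by a fixed fold versus the mean of GFP or LacZ controls across duplicate plates; lowering cut given as 1.5 and as 3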
Calls: active = hit: reporter lowered or raised; inactive = no hit
The deposit covers about 24,000 reagents; this is an unselected part of those that have a named target and a result. In the full data, 246 (1%) are marked active. 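Plates not normalised; calls are printed but the firefly/Renilla ratio behind them is not deposited; fold cut for lowering reported inconsistently.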 The raw values are shown without normalisation. Unmarked entries are inactive. Reagents against one gene are numbered here. Not given: the amount of reagent.

The opening 2 records, to show the layout:
CG13838 #1 — firefly reporter light, replicate 1: 1.77e5; firefly reporter light, replicate 2: 1.85e5; Renilla control light, replicate 1: 2.35e6; Renilla control light, replicate 2: 1.79e6
CG13838 #2 — firefly reporter light, replicate 1: 6.98e5; firefly reporter light, replicate 2: 5.91e5; Renilla control light, replicate 1: 1.74e6; Renilla control light, replicate 2: 1.37e6

Results, repeating the preview:
CG13838 #1 — firefly reporter light, replicate 1: 1.77e5; firefly reporter light, replicate 2: 1.85e5; Renilla control light, replicate 1: 2.35e6; Renilla control light, replicate 2: 1.79e6
CG13838 #2 — firefly reporter light, replicate 1: 6.98e5; firefly reporter light, replicate 2: 5.91e5; Renilla control light, replicate 1: 1.74e6; Renilla control light, replicate 2: 1.37e6
SmydA-4 #1 — firefly reporter light, replicate 1: 2.54e5; firefly reporter light, replicate 2: 1.96e5; Renilla control light, replicate 1: 1.76e6; Renilla control light, replicate 2: 1.87e6
SmydA-4 #2 — firefly reporter light, replicate 1: 7.73e5; firefly reporter light, replicate 2: 7.49e5; Renilla control light, replicate 1: 1.70e6; Renilla control light, replicate 2: 1.95e6
SmydA-4 #3 — firefly reporter light, replicate 1: 2.67e5; firefly reporter light, replicate 2: 3.49e5; Renilla control light, replicate 1: 6.14e5; Renilla control light, replicate 2: 6.16e5
CG13678 — firefly reporter light, replicate 1: 4.42e5; firefly reporter light, replicate 2: 3.96e5; Renilla control light, replicate 1: 3.56e6; Renilla control light, replicate 2: 4.09e6
SamDC — firefly reporter light, replicate 1: 6.43e5; firefly reporter light, replicate 2: 7.96e5; Renilla control light, replicate 1: 1.64e6; Renilla control light, replicate 2: 1.72e6
Med — firefly reporter light, replicate 1: 3.17e5; firefly reporter light, replicate 2: 2.21e5; Renilla control light, replicate 1: 7.43e5; Renilla control light, replicate 2: 5.89e5
Agpat4 #1 — firefly reporter light, replicate 1: 1.45e5; firefly reporter light, replicate 2: 1.16e5; Renilla control light, replicate 1: 1.60e6; Renilla control light, replicate 2: 1.36e6
Agpat4 #2 — firefly reporter light, replicate 1: 5.15e5; firefly reporter light, replicate 2: 3.50e5; Renilla control light, replicate 1: 7.75e5; Renilla control light, replicate 2: 6.56e5
CG18335 #1 — firefly reporter light, replicate 1: 1.04e5 (active); firefly reporter light, replicate 2: 1.11e5; Renilla control light, replicate 1: 1.10e6; Renilla control light, replicate 2: 8.28e5
CG18335 #2 — firefly reporter light, replicate 1: 4.67e5; firefly reporter light, replicate 2: 3.32e5; Renilla control light, replicate 1: 1.22e6; Renilla control light, replicate 2: 1.22e6
Vha16-2 #1 — firefly reporter light, replicate 1: 2.89e5; firefly reporter light, replicate 2: 2.30e5; Renilla control light, replicate 1: 2.31e6; Renilla control light, replicate 2: 1.93e6
Vha16-2 #2 — firefly reporter light, replicate 1: 9.26e5; firefly reporter light, replicate 2: 5.01e5; Renilla control light, replicate 1: 2.04e6; Renilla control light, replicate 2: 7.19e5
